From publication PMC8933431
No constants are given. Whether binding was seen depends on the method and setting.

Sequences of proteins named here, by UniProt entry; tags and fusion partners are left off. Residues count along the entry.
UniProt P02769, residues 25-607: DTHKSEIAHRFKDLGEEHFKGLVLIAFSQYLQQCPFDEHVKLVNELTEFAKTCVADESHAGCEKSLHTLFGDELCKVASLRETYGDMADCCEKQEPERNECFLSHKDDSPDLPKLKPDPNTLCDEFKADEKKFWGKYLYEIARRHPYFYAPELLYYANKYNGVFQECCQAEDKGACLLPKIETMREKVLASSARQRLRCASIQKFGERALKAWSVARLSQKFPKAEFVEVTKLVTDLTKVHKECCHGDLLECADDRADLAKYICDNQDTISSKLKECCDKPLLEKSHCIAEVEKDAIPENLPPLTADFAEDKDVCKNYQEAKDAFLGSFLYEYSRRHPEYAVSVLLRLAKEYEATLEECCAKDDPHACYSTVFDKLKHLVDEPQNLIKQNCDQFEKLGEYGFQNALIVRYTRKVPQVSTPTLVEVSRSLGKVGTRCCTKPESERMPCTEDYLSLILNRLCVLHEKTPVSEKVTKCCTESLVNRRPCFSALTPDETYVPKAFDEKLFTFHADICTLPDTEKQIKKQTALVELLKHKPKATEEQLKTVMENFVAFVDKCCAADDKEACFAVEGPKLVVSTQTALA

Key:
[1] = molecular target: bovine serum albumin (bovine) (UniProt P02769); experiment: cross-linking; BSA 1 mg/mL in >4 M urea or >1 M GdnHCl for 1 h at room temperature, then DOPA2 (0.17 mM) or DSS (0.5 mM); SDS-PAGE; both purified
[2] = molecular target: bovine serum albumin (bovine) (UniProt P02769); experiment: cross-linking; BSA 1 mg/mL in citric acid-Na2HPO4 buffer pH 3.0, DOPA2 (0.17 mM) or DSS (0.5 mM) for 10 s; SDS-PAGE; both purified

binding [2]: no binding (condition: pH 3.0)
Substance: bovine serum albumin (from UniProt P02769 25-607)
binding [1]: no binding (condition: >4 M urea or >1 M GdnHCl)
